Results deposited as PubChem BioAssay AID720710 (VTT Finland, 2013)
Here is one part, drawn at random, of about 1,380 reagents. 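One array per condition without replicates; hydroxyurea arrays received 2 mM for 16 h plus 3 h recovery.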 Reagents against one gene are numbered here. Not all columns of the deposit are shown.

Aim: 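Knock-downs that leave cyclin E-high cells sensitive to replication stress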 (primary screen)
Cells: human U-2 OS bone cancer cells, parental and a cyclin E (CCNE1) overexpressing line
Knock-down reagent: single siRNA against human genes, 1 µM siRNA in the printed spot mix
Duration: 67 h
Challenge: half the arrays: hydroxyurea 2 mM for 16 h, then 3 h recovery; other arrays untreated
Read-out: 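DNA synthesis measured as imaged EdU uptake per nucleus (DAPI) at 67 h, normalised to subgrid median and given as z-score versus non-targeting controls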
Direction: EdU z-score, cyclin E line, hydroxyurea: higher = more DNA synthesis than non-targeting controls

| Target gene | siRNA no. | EdU z-score, cyclin E line, hydroxyurea |
| --- | --- | --- |
| LOC729687 | 1 | -0.578 |
| LOC729687 | 2 | -0.305 |
| BCCIP (BRCA2 and CDKN1A interacting protein) | 1 | 0.2 |
| BCCIP (BRCA2 and CDKN1A interacting protein) | 2 | 0.711 |
| UBE2N (ubiquitin conjugating enzyme E2 N) | 1 | 0.126 |
| UBE2N (ubiquitin conjugating enzyme E2 N) | 2 | 0.468 |
| RAG1 (recombination activating 1) | 1 | -2.06 |
| RAG1 (recombination activating 1) | 2 | -0.312 |
| TOPORS | 1 | -0.0568 |
| TOPORS | 2 | -0.0367 |
| RBM14 (RNA binding motif protein 14) | 1 | -2.2 |
| RBM14 (RNA binding motif protein 14) | 2 | 0.351 |
| RAD23A (RAD23 nucleotide excision repair protein A) | 1 | -1.53 |
| RAD23A (RAD23 nucleotide excision repair protein A) | 2 | -0.495 |
| MAP3K20 (mitogen-activated protein kinase kinase kinase 20) | 1 | -0.549 |
| MAP3K20 (mitogen-activated protein kinase kinase kinase 20) | 2 | -0.388 |
| PURA (purine rich element binding protein A) | 1 | -0.876 |
| PURA (purine rich element binding protein A) | 2 | -0.624 |
| ATR (ATR checkpoint kinase) | 1 | -0.34 |
| ATR (ATR checkpoint kinase) | 2 | 0.894 |
| SIRT5 (sirtuin 5) | 1 | -0.65 |
| SIRT5 (sirtuin 5) | 2 | 2.25 |
| BABAM2 (BRISC and BRCA1 A complex member 2) | 1 | -1.36 |
| BABAM2 (BRISC and BRCA1 A complex member 2) | 2 | 1.42 |

Records listed so far whose target name begins with M or m (2):
| Target gene | siRNA no. | EdU z-score, cyclin E line, hydroxyurea |
| --- | --- | --- |
| MAP3K20 (mitogen-activated protein kinase kinase kinase 20) | 1 | -0.549 |
| MAP3K20 (mitogen-activated protein kinase kinase kinase 20) | 2 | -0.388 |
